What all share (assay): cells
Common to all, as to conditions: Mus musculus, BaF3, 24 h, read-out: IC50 of Stably Transfected Ba/F3 Cell Survival

Experiment [1] concerns Ba/F3 cells stably transfected with KIT V560D. How it is done: (§1) The ability of Kit mutants to act as survival factors was assessed in Kit-dependent Ba/F3 cells. Ba/F3 cells stably transfected with various KIT mutants were seeded in a 96-well tissue culture plate at a density of 5 × 10^3 cells per well. […] Cell viability was assessed by measuring the level of adenosine triphosphate using ATPlite assays (PerkinElmer Life Sciences, Boston, MA). Reconstituted ATPLite 1-step solution was added to each well followed by incubation with shaking for 2 minutes. The plate was read on a Victor Model 1420 multilabel counter (PerkinElmer Inc.) under the luminescence setting.

In experiment [2] the test system is Ba/F3 cells stably transfected with KIT Δ552-559. On the procedure:
as §1

The test system of experiment [3] is Ba/F3 cells stably transfected with KIT Y823D. How it is done:
as §1

Experiment [4] relates to Ba/F3 cells stably transfected with KIT V560D/V654A. On the procedure:
as §1

The subject of experiment [5] is Ba/F3 cells stably transfected with KIT V560D/T670I. How it is done: as §1
In experiment [6] the test system is Ba/F3 cells stably transfected with KIT AYins503-504. On the procedure: as §1

For `Cc1ccc(NC(=O)c2ccc(CN3CCN(C)CC3)cc2)cc1Nc1nccc(-c2cccnc2)n1` [Imatinib, reference compound], the IC50 in experiment [1] was 0.007 µM; in experiment [2], 0.001 µM; in experiment [3], 0.33 µM; in experiment [4], 0.145 µM; in experiment [5], over 3 µM; in experiment [6] it was 0.047 µM.

For the origin of these results see article PMC2912835 (Journal of Experimental & Clinical Cancer Research : CR, 2010).
